In publication PMC7819943, “Rice protein-binding microarrays: a tool to detect cis-acting elements near promoter regions in rice”:
The other results are listed elsewhere or left out.

The chains behind the UniProt entries cited, without tags or fusion partners.
UniProt Q0JBA9, entry or part of it: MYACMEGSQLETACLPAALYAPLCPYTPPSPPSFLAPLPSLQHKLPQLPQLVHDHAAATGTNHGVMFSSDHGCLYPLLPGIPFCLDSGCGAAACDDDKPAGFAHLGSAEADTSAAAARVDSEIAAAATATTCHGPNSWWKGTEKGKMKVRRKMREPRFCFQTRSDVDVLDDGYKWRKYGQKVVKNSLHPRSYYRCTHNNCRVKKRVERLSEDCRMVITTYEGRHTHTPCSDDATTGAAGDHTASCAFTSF

What follows are sequences tested against OsWRKY34 (Oryza sativa, UniProt Q0JBA9 1-250) (assay: protein-binding microarray (RPBM); PBS, 2% BSA, 51.3 ng/ul salmon testes DNA, 50 uM zinc acetate, 200 nM TF, 25 C, 1 h; high values mean tight binding). Conditions: protein: recombinant; tags: N-terminal polyhistidine and DsRed monomer fusion (pET32a); label: CyDye5-dUTP incorporated in the synthesized complementary strand; 3' TTTTT single-stranded linker to array surface; dsDNA, one strand shown.
Procedure, shortened: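 Transcription factors, each fused N-terminally to a polyhistidine tag and DsRed, were expressed in E. coli BL21-CodonPlus and purified on Ni–NTA. A custom Agilent array was made double-stranded by primer extension with Cy5-dUTP and blocked with 2% BSA. It was incubated with 200 nM protein in PBS, 2% BSA, salmon testes DNA and 50 µM zinc acetate at 25 °C for 1 h, then washed. The binding signal is per-feature fluorescence intensity (arbitrary units) read on an Axon 4000B scanner.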

| Sequence | binding signal |
| --- | --- |
| CCCCATGTTAGGTCGCTCCTCAACTGCACTATCCATCAGCCGGAGTCACCTAGTGCAG | 8930 fluorescence intensity (a.u.) |
| TTGCTCTCCGCCCACAGCACCGACTCATCCTGTTACTCCGCGGAGTCACCTAGTGCAG | 8680 fluorescence intensity (a.u.) |
| GTTCCTCTGATTGGGGAGGCTGGGGCACTGAAAAGGCGAACGGAGTCACCTAGTGCAG | 13000 fluorescence intensity (a.u.) |
| GGAGGAGGAGGAGGCCAAGGGCGTGGGTACTATGATGATGCGGAGTCACCTAGTGCAG | 10200 fluorescence intensity (a.u.) |
| TGTTCTTTCAGCGGTAGGCGATGTATCTCTTGTATAGCCGCGGAGTCACCTAGTGCAG | 8570 fluorescence intensity (a.u.) |
| TGTATTAGGGAGTGTGAATGTAGTATTTCATTTCCGTCTACGGAGTCACCTAGTGCAG | 8080 fluorescence intensity (a.u.) |
| GACATGTGTGTCCCACTTTTTAAAATCTTTTTTCCTGATTCGGAGTCACCTAGTGCAG | 8580 fluorescence intensity (a.u.) |
| CACCTATCATACACACGTTACGTCTTAGAGTCCATGCTGCCGGAGTCACCTAGTGCAG | 10800 fluorescence intensity (a.u.) |
| ATTTTTCTTCAAACTTTCAACTTTTTCATCGTATCCAAACCGGAGTCACCTAGTGCAG | 8740 fluorescence intensity (a.u.) |
| TCACTGGTAACCAGCCTTTTTACGCCCTTTACCTCGTCGACGGAGTCACCTAGTGCAG | 8110 fluorescence intensity (a.u.) |
| GGTGCGGCGGTGGGCGGCATGGAGATGGGGAGAGGAGGCGCGGAGTCACCTAGTGCAG | 10600 fluorescence intensity (a.u.) |
| TGTGTCATCTTTACTACCGTTCCTCTCTCTATCCTCTCTCCGGAGTCACCTAGTGCAG | 8970 fluorescence intensity (a.u.) |
| CTTAGTGGTGGGTATAATATCTCGTCAGCTTCGCGCAAGCCGGAGTCACCTAGTGCAG | 11300 fluorescence intensity (a.u.) |
| GCGGCGGTGGTTAGGGTTTGGGGCTCGTCGGCGTCGGCGACGGAGTCACCTAGTGCAG | 10900 fluorescence intensity (a.u.) |
| TCTCTCGCGCGCGCACCTTGCCGCCGCCCGCCATCGCCAACGGAGTCACCTAGTGCAG | 13900 fluorescence intensity (a.u.) |
| GAACCCTTCGGCAATAAATACGGCGTCCCATCAAAATCGACGGAGTCACCTAGTGCAG | 8050 fluorescence intensity (a.u.) |
| TTTCTATATGGACTCTGTTTTTTCTTTTTCTCCGATTAATCGGAGTCACCTAGTGCAG | 8350 fluorescence intensity (a.u.) |
| TCACTGACGTCCGGCCCCACGCGGCTGTCCCCACCGCCCCCGGAGTCACCTAGTGCAG | 10500 fluorescence intensity (a.u.) |
| ACCGCTACGCCAACCACAACCGCGTCTTCTTCGACTGCACCGGAGTCACCTAGTGCAG | 9710 fluorescence intensity (a.u.) |
| GTACCTGCTCTAATTTGTTTTGTTATTAGTCTACGTTTAACGGAGTCACCTAGTGCAG | 8580 fluorescence intensity (a.u.) |
| ATCGGGGCGTCACTCATCACCATCCGCGAGCACTTTGACTCGGAGTCACCTAGTGCAG | 8420 fluorescence intensity (a.u.) |
| CCTCTAAATTTTAAGATTTTTTTAATCATTTTACCATTTTCGGAGTCACCTAGTGCAG | 65200 fluorescence intensity (a.u.) |
| AAGTGGATGGTGGTGGTGGTGGGGCATCGGAGACATACAGCGGAGTCACCTAGTGCAG | 9280 fluorescence intensity (a.u.) |
| CACACACACACTCACACTCACACACGCTCTCAACTCACTCCGGAGTCACCTAGTGCAG | 12400 fluorescence intensity (a.u.) |
| ATCCGATCTCTCTTCTCATTCTCTTCTCTTGGTTTGGGGTCGGAGTCACCTAGTGCAG | 8220 fluorescence intensity (a.u.) |
| TTGGGTTGGTTGCTCTCCTCCTCTCTTCTCTTTGTGGTCGCGGAGTCACCTAGTGCAG | 8580 fluorescence intensity (a.u.) |
| GAGCTCCACCCACCGCAACTACCTTTTTGACCCCTCACTCCGGAGTCACCTAGTGCAG | 8670 fluorescence intensity (a.u.) |

Looked up above.
binding signal with GAGCTCCACCCACCGCAACTACCTTTTTGACCCCTCACTCCGGAGTCACCTAGTGCAG is entered as 8670 fluorescence intensity (a.u.)
binding signal with CTTAGTGGTGGGTATAATATCTCGTCAGCTTCGCGCAAGCCGGAGTCACCTAGTGCAG is entered as 11300 fluorescence intensity (a.u.)
binding signal with TGTTCTTTCAGCGGTAGGCGATGTATCTCTTGTATAGCCGCGGAGTCACCTAGTGCAG is entered as 8570 fluorescence intensity (a.u.)
binding signal with GCGGCGGTGGTTAGGGTTTGGGGCTCGTCGGCGTCGGCGACGGAGTCACCTAGTGCAG is entered as 10900 fluorescence intensity (a.u.)

Later entries.

| Sequence | binding signal |
| --- | --- |
| CTTTCTTTTTTTTCCCCTTTTCTTTTCTGACAGCCACTGTCGGAGTCACCTAGTGCAG | 9950 fluorescence intensity (a.u.) |
| GTTGCATGTGGATTTTGCTGAACTTTGGTCTTCTCAACTTCGGAGTCACCTAGTGCAG | 13700 fluorescence intensity (a.u.) |
| CGTCTATCCCTTTTTTTTTATACAATTAGGTGAAAATATGCGGAGTCACCTAGTGCAG | 9030 fluorescence intensity (a.u.) |
| TTTGTTTCCTCACGTGGTTTCCTTTTTGGCACCGCATTACCGGAGTCACCTAGTGCAG | 12600 fluorescence intensity (a.u.) |
| CTGTGTGAGACTGACATGTGGGGCCCACGGGGTTTATTATCGGAGTCACCTAGTGCAG | 8320 fluorescence intensity (a.u.) |
| GACCGTTCCAGTTAGTTTAACACCTTAACTTCCATTAGCTCGGAGTCACCTAGTGCAG | 9400 fluorescence intensity (a.u.) |
| CATTCAATCCTAGCCATTCATCCACTTTCTTTTTTTTTTTCGGAGTCACCTAGTGCAG | 8210 fluorescence intensity (a.u.) |
| GCCCCAATTGACCACGTTCGCTGTAGCCGCGCCCCGCGCACGGAGTCACCTAGTGCAG | 11200 fluorescence intensity (a.u.) |
| GCGCCGCCATCACCACCGCCGCGGCCACCGTCACCCCGGCCGGAGTCACCTAGTGCAG | 8240 fluorescence intensity (a.u.) |
| TCGGATACGAGTTTGATTCTCATCCTCCTTCATTTATATTCGGAGTCACCTAGTGCAG | 8320 fluorescence intensity (a.u.) |
| AATCTCAGTTCTCATGCCTTGTTTAGTTCCAAACTTTTTCCGGAGTCACCTAGTGCAG | 10200 fluorescence intensity (a.u.) |
| GTTGTCAGTGCGTGGGTGGTGTTTTCTTCATTTTCCTATTCGGAGTCACCTAGTGCAG | 11600 fluorescence intensity (a.u.) |
| TTTACACACTCATCATACATACTATTTGCTCCATTCTGAACGGAGTCACCTAGTGCAG | 9210 fluorescence intensity (a.u.) |
| TTTTGTGGTTGGTTGTATCGTGATCCTAAGTGTGAAAAAACGGAGTCACCTAGTGCAG | 8380 fluorescence intensity (a.u.) |
| CTCAAGATTTATGATTTTCTATATGTTTGTCCCTTTTCTTCGGAGTCACCTAGTGCAG | 10300 fluorescence intensity (a.u.) |
| CTCTCTCTCTCTCATGCAATGCAAATGCAACCTGTCTTATCGGAGTCACCTAGTGCAG | 8840 fluorescence intensity (a.u.) |
| CCACCTCCACTTCGCCGCCGGCGCCTCACCACGCGCAGACCGGAGTCACCTAGTGCAG | 8800 fluorescence intensity (a.u.) |
| TAATAAAGACATCTCCTCTTGGCTCTTTTACTGTTTGATACGGAGTCACCTAGTGCAG | 10000 fluorescence intensity (a.u.) |
| ATCCGTCCGTTTCGTTCCGTACGAACCGCCGGCGTTCAAACGGAGTCACCTAGTGCAG | 8580 fluorescence intensity (a.u.) |
| ATGGGCTGGCCCACGCAACATTCCACCTTGGGCTTCGATTCGGAGTCACCTAGTGCAG | 8520 fluorescence intensity (a.u.) |
| ATAAAGTGATTTTCGGTTGTGATGATGCGGTCTATATATACGGAGTCACCTAGTGCAG | 8230 fluorescence intensity (a.u.) |
| GGGCTTGGGTTTGTGCTGGTCCATACTTATGGGCTTAATACGGAGTCACCTAGTGCAG | 10400 fluorescence intensity (a.u.) |
| TTCATTGTCATTGTGTGCCTGTGCTGTAAAAGTTGATTATCGGAGTCACCTAGTGCAG | 11000 fluorescence intensity (a.u.) |
| AAAATTTTCCTTTTTTCTCCTCTCTTCTCACCGGTTCACCCGGAGTCACCTAGTGCAG | 9440 fluorescence intensity (a.u.) |
| GTCAAAGCAGCTGACAAGAAGAGGTGCCGTTGACCCCACCCGGAGTCACCTAGTGCAG | 8990 fluorescence intensity (a.u.) |
| CTGAGTTCCTTTGCTACTTGCCTCCTTGCTGCGCTTCTCGCGGAGTCACCTAGTGCAG | 14000 fluorescence intensity (a.u.) |
| AGAGCATACATTTACACATGAGGGAGGGAGGGCCATCGATCGGAGTCACCTAGTGCAG | 9340 fluorescence intensity (a.u.) |
